{
  "source": "patent US12329760B2",
  "about": "“Methods and compositions for targeting retinoic acid for solid tumor immunotherapy” (THE TRUSTEES OF THE UNIVERSITY OF PENNSYLVANIA, priority 2019, dated 2025)",
  "key": {"human monocytes [1]": {"tested_on": "human monocytes", "test": "Human monocyte differentiation in vitro (GM-CSF + IL4), flow cytometry", "assay_type": "cell-based", "details": "GM-CSF and IL4 50 ng/ml, RA 20 nM, 5 days, vs DMSO"}, "human monocytes [2]": {"tested_on": "human monocytes", "test": "Microarray gene expression of human monocyte-derived cells treated with RA or DMSO", "assay_type": "cell-based", "details": "RA vs DMSO"}, "mouse monocytes [3]": {"tested_on": "mouse monocytes", "test": "Microarray gene expression of mouse monocyte-derived cells treated with RA or DMSO", "assay_type": "cell-based", "details": "RA vs DMSO"}, "[4]": {"tested_on": "Ly6C+ZBTB46-GFP- monocytes from fibrosarcoma (FS) tumors", "test": "Differentiation of monocytes sorted from fibrosarcoma tumors, cultured with GM-CSF and IL-4", "assay_type": "cell-based, mouse", "details": "GM-CSF 20 ng/mL and IL-4 20 ng/mL, RA 100 nM, 3d, vs DMSO"}, "MCAS cells": {"tested_on": "MCAS cells", "test": "RALDH3 expression in treated MCAS cells by RT-QPCR", "assay_type": "cell-based, murine", "details": "IL13 vs IL13+BMS493 (FIG. 20)", "method": "FIGS. 16A-16C show 1L13 and RALDH expression. FIG. 16A: MCAS cells were treated in vitro with indicated agents and RALDH3 expression (relative to 18S) measured by RT-QPCR. P<0.05 between no Tx and IL4 or IL13. N=3, repeated >5 times. FIG. 16B: IL13 and IL13Rα1 staining in murine UPS. FIG. 16C: Single cell suspension from MCAS tumors were fractionated into CD45+(Leukocytes) and CD45-fraction using miltenyi magnetic columns. RT-QPCR based measurement (relative to 18S) of IL13 and IL13Rα1 transcripts were performed on fractionated cells. P<0.01 for IL13. N=3, experiment repeated twice.\nFIG. 20A: MCAS cells were treated with indicated compounds and RALDH3 expression (relative to 18S) measured by RT-QPCR. P<0.01 for DMSO vs. IL13. P<0.05 for IL13 vs. IL13+BMS493. FIG. 20B: Schematic of RALDH3 regulation by RA.\nAldefluor positive and negative cells were purified from murine fibrosarcomas and were transplanted into syngeneic B6 mice. Tumors derived from both types of cells generated both aldefluor positive and negative cells. This indicated the existence of an environmental signal in the TME that induces RA production in tumor cells. […] To test this, MCAS cell lines were treated with cytokines promoting macrophage and DC differentiation and measured the expression of RALDH enzymes. […] IL13 and its receptor IL13Rα1 were also detected in murine sarcomas by IHC (FIG. 16B)."}, "mouse monocytes [5]": {"tested_on": "mouse monocytes", "test": "Mouse monocyte differentiation in vitro (GM-CSF + IL4), flow cytometry", "assay_type": "cell-based", "details": "GM-CSF and IL4 20 ng/ml, RA 100 nM, 5 days, vs DMSO"}},
  "note": "“Also recorded” adds a separate entry of the source. For at least one compound, name, drawing or mass did not settle the structure.",
  "data": [
    {"smiles": "CC1=C(/C=C/C(C)=C/C=C/C(C)=C/C(=O)O)C(C)(C)CCC1", "note": "[RA, retinoic acid]", "values": [
      {"measurement": "monocyte differentiation into DCs vs macrophages (FCM)", "setting": "human monocytes [1]", "result": "blocked DC but promoted macrophage differentiation; also recorded: blocks monocyte-derived DCs"},
      {"measurement": "expression of DC associated genes (microarray)", "setting": "human monocytes [2]", "result": "significant reduction"},
      {"measurement": "expression of genes associated with immunosuppressive and tumor promoting activities of TAM (Argl, TGM251)", "setting": "human monocytes [2]", "result": "increased the expression"},
      {"measurement": "expression of genes associated with macrophage differentiation (microarray)", "setting": "human monocytes [2]", "result": "significantly upregulated"},
      {"measurement": "expression of DC associated genes (microarray)", "setting": "mouse monocytes [3]", "result": "significant reduction"},
      {"measurement": "expression of genes associated with immunosuppressive and tumor promoting activities of TAM (Argl, TGM251)", "setting": "mouse monocytes [3]", "result": "increased the expression"},
      {"measurement": "expression of genes associated with macrophage differentiation (microarray)", "setting": "mouse monocytes [3]", "result": "significantly upregulated"},
      {"measurement": "DC and macrophage differentiation of sorted tumor monocytes", "setting": "[4]", "result": "inhibits DC and promotes macrophage differentiation"},
      {"measurement": "regulation of RALDH3 expression by RA signaling", "setting": "MCAS cells", "result": "negative regulation of RALDH3"},
      {"measurement": "monocyte differentiation into DCs vs macrophages (FCM)", "setting": "mouse monocytes [5]", "result": "blocked DC but promoted macrophage differentiation; also recorded: blocks monocyte-derived DCs"}
    ]}
  ]
}
